From article PMC8251345, “Entropic pressure controls the oligomerization of the Vibrio cholerae ParD2 antitoxin” (Acta Crystallographica. Section D, Structural Biology, 2021)
Results are given in words; binding and its absence hold for the method and conditions named. Some results given as binding are weak or reduced against the parent protein; the word gives no strength.

Target: Vibrio cholerae ParE2 toxin with C-terminal His tag (V. cholerae)
Assay: SEC; […]; 20 mM Tris pH 8.0, 150 mM NaCl, 1 mM TCEP ([…]

B1: Vibrio cholerae ParD2 antitoxin (natural protein)
chain: MAKNTSITLGEHFDGFITSQIQSGRYGSASEVIRSALRLLENQETKLQSLRQLLIEGEQSGDADYDLDSFINELDSENIR
notes: also called VcParD2
binding: binds
